Data taken from publication PMC8099431.
Results are given in words; binding and its absence hold for the method and conditions named. In cells and extracts the contact can be indirect. Some results given as binding are weak or reduced against the parent protein; the word gives no strength. Where a sequence is shown, tags or fusion partners need not be part of it. Each block holds one binder with its values, some of them ahead of it.

Target: T1, PAN-1::HA::His (full-length pan-1b in pcDNA3.1) (C. elegans) (UniProt Q9U3A0)
T1 sequence: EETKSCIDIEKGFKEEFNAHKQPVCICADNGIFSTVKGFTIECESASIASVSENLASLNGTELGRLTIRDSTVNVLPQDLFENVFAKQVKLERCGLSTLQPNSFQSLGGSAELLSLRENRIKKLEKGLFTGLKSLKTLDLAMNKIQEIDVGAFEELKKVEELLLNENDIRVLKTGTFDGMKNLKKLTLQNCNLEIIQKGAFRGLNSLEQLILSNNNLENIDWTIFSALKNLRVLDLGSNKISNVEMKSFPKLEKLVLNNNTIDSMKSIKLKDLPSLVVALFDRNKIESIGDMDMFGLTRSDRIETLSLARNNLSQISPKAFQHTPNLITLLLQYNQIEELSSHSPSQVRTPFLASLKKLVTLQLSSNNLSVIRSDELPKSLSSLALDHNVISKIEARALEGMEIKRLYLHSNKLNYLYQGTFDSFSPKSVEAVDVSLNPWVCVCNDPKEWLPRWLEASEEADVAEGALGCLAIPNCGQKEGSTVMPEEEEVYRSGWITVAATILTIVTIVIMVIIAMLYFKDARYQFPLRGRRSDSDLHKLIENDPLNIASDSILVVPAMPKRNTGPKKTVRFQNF
Assay: co-IP; both proteins co-expressed in HEK293T cells; lysis in 50 mM Tris pH 7.4, 150 mM NaCl, 1% NP40, 0.25% sodium taurodeoxycholate, 1 mM EDTA; rabbit anti-HA overnight at 4°C, Dynabeads protein A; western blot with murine anti-HA, anti-V5 or anti-Flag

- binding: binds
B1: V5::MYRF-1::3xFlag (full-length myrf-1, pQA1228) (protein, UniProt G5EFI7 1-931)
chain: MSSSDLLKGEFDGLNSEHFNMMQYLTQDTDEDDGSMVSPTSSADSMHQNLGVQQQQQQMLQAQQRQNQNGIFQPRRFPESPAMTDPCGNVSSSSSSSHHSDPMFSPNEFNGYAGANDNGNQTMNNIQSQQLSQQQHQQTRGGNLMMPQQSSIHAQMQNMNAPQFWSQPGTAAVNQPTNTLAQLNLFNIIRGGADSGMPSPVLEMPRKRSRLDTPCETPRIAPSFAGIDGFPDENYSQQQAIRFSKFQEEQWSPLYDINAQPLQQLQVHVVADKGFNYNSNDNCFVNQKKNHFQISVNVEASDTMPPKYVNFNNRLVPIRDFKLSFCGVKAEMPSSEITIRQSRADRKPHTHTPVLFEIQERRMTKVCVPRLHFSETTLNNQRKQKNRPNPEQKFFLLVVRLFASIDESEHGVLIQSYASEKVIVRATNPGSFEPQDTDIGWQRNGGALYTQGAVSVGTEHQVESAKLTVAGDIYMSGRIINPSDIRLKEAITERETAEAIENLLKLRVVDYRYKPEVADIWGLDEQQRHRTGLIAQELQAVLPDAVRDIGDYLTIDEGRVFYETVMATQQLCRMTGDLDSKIDEKVAEISRRLNEYAVRKKLASSMASNLNGDNKSLSYSRCSLTSTATNATSQPKRSRKHRAIKQAQSCGSRLSQGTVVTLVSIMAACLLAMSALYVLDWHNRNYGYHQHFETNTPSTKGELANLVISPANFMPSFQPDAPILLEKCFNPSCKTYCCTDTPPVVEDSRAIATHGLDNGDEVYPESPSNRTNGIARAPNLEHMAFETGVEIRIPALNVTLDQRYCVERSCNKRKGIFNVFVPVSRYMPDVALEIEIKAPISKVVSNCGAFPSTEFNHKVCPLSRTQQSESPVPTSTRLFDNIFELSMGSFIQSAYRFRVGYSTETCFSEDSNGSYEEYNLIFYRMCTLSSS

- binding: no binding
B2: 6xHis::3xFlag::myrf-1 (1–482) (pQA1250) (domain or fragment, UniProt G5EFI7 1-482)
chain: MSSSDLLKGEFDGLNSEHFNMMQYLTQDTDEDDGSMVSPTSSADSMHQNLGVQQQQQQMLQAQQRQNQNGIFQPRRFPESPAMTDPCGNVSSSSSSSHHSDPMFSPNEFNGYAGANDNGNQTMNNIQSQQLSQQQHQQTRGGNLMMPQQSSIHAQMQNMNAPQFWSQPGTAAVNQPTNTLAQLNLFNIIRGGADSGMPSPVLEMPRKRSRLDTPCETPRIAPSFAGIDGFPDENYSQQQAIRFSKFQEEQWSPLYDINAQPLQQLQVHVVADKGFNYNSNDNCFVNQKKNHFQISVNVEASDTMPPKYVNFNNRLVPIRDFKLSFCGVKAEMPSSEITIRQSRADRKPHTHTPVLFEIQERRMTKVCVPRLHFSETTLNNQRKQKNRPNPEQKFFLLVVRLFASIDESEHGVLIQSYASEKVIVRATNPGSFEPQDTDIGWQRNGGALYTQGAVSVGTEHQVESAKLTVAGDIYMSGRIINP
